Laboratory results from patent publication US20090075929A1.
Results are given in words; binding and its absence hold for the method and conditions named. Some binding calls cover weakened binding; strength is not graded here.

Target: DR5 (death receptor 5), endogenous in PA-1 cells, O14763
Assay: IP of DR5 from PA-1 lysates, immunoblot for caspase-8
Conditions: remark: other sources report otherwise

B1: caspase-8 (pro-caspase-8, p55/53), endogenous, Q14790 1-479 (enzyme, UniProt Q14790 1-479, looked up)
chain: MDFSRNLYDIGEQLDSEDLASLKFLSLDYIPQRKQEPIKDALMLFQRLQEKRMLEESNLSFLKELLFRINRLDLLITYLNTRKEEMERELQTPGRAQISAYRVMLYQISEEVSRSELRSFKFLLQEEISKCKLDDDMNLLDIFIEMEKRVILGEGKLDILKRVCAQINKSLLKIINDYEEFSKERSSSLEGSPDEFSNGEELCGVMTISDSPREQDSESQTLDKVYQMKSKPRGYCLIINNHNFAKAREKVPKLHSIRDRNGTHLDAGALTTTFEELHFEIKPHDDCTVEQIYEILKIYQLMDHSNMDCFICCILSHGDKGIIYGTDGQEAPIYELTSQFTGLKCPSLAGKPKVFFIQACQGDNYQKGIPVETDSEEQPYLEMDLSSPQTRYIPDEADFLLGMATVNNCVSYRNPAEGTWYIQSLCQSLRERCPRGDDILTILTEVNYEVSNKDDKKNMGKQMPQPTFTLRKKLVFPSD
- binding: binds
